The values that follow come from article PMC7333892, “Identification of a PGXPP degron motif in dishevelled and structural basis for its binding to the E3 ligase KLHL12” (Open Biology, 2020).

Assay [1] has as its target T1, FITC-labelled DVL1 peptide, residues 650-669 (human) (UniProt O14640).
T1 sequence (peptide, FITC on the N-terminus): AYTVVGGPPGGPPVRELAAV
In words: fluorescence polarisation; 40 nM FITC-labelled peptide, Kelch domain protein titrated; 50 mM HEPES pH 7.5, 300 mM NaCl, 0.5 mM TCEP, 0.01% Triton-X; hyperbolic fit, n = 3; both purified. On the technique in general: In fluorescence polarisation assays a small probe gives low polarisation when free and higher when bound to something large.

For assay [2], the target named is T2, DVL1 20-mer peptide, residues 650-669, printed on the SPOT array (spot A13) (human) (UniProt O14640).
T2 sequence (peptide): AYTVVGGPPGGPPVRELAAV
Kind of assay: peptide or protein array; initial DVL1 SPOT array: 20-mer peptides on cellulose membrane, incubated with 0.4 µM His6-tagged Kelch domain protein in PBS for 1 h at 4°C, bound protein detected with HRP-conjugated anti-His antibody; both purified.

These are yes or no findings as the source states them, for the method shown.

B1: Human KLHL7 Kelch domain (residues 283-586) (domain or fragment, UniProt Q8IXQ5-1 283-586)
chain: GTRPRRKKHDYRIALFGGSQPQSCRYFNPKDYSWTDIRCPFEKRRDAACVFWDNVVYILGGSQLFPIKRMDCYNVVKDSWYSKLGPPTPRDSLAACAAEGKIYTSGGSEVGNSALYLFECYDTRTESWHTKPSMLTQRCSHGMVEANGLIYVCGGSLGNNVSGRVLNSCEVYDPATETWTELCPMIEARKNHGLVFVKDKIFAVGGQNGLGGLDNVEYYDIKLNEWKMVSPMPWKGVTVKCAAVGSIVYVLAGFQGVGRLGHILEYNTETDKWVANSKVRAFPVTSCLICVVDTCGANEETLET
As to B1, the binding result in assay [1] was “no binding”; in assay [2], “no binding (tested: 0.4 µM)”.
